Reference: the supplement of paper PMC10849652
The list shows a part of the results.

Protein sequences, listed by entry. Tags and fused reporters are not part of them. Lines headed by an entry give the natural chain unless they say otherwise; changes in a name come on top.
UniProt O60256: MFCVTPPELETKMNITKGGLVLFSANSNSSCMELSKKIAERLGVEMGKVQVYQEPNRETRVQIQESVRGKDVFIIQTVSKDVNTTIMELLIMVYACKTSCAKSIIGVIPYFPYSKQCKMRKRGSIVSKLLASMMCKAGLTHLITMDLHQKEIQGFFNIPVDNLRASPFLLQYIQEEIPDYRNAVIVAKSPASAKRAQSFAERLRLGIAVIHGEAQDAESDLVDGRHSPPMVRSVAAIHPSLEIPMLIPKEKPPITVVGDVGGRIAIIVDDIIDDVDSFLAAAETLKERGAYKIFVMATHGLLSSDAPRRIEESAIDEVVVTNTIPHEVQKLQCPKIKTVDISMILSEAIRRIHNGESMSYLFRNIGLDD
UniProt Q06323: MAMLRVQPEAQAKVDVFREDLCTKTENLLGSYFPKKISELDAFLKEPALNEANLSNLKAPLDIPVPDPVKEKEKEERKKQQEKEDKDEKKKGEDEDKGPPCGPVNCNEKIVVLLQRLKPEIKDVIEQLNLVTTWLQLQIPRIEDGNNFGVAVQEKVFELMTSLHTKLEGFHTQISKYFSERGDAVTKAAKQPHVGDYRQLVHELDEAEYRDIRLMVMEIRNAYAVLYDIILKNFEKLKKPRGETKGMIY
UniProt P49721: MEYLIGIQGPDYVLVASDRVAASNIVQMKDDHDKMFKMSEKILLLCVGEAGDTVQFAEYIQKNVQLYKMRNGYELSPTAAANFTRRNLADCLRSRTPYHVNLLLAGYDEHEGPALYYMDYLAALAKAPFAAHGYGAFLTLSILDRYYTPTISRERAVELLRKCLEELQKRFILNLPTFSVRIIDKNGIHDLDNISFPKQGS
UniProt Q92530: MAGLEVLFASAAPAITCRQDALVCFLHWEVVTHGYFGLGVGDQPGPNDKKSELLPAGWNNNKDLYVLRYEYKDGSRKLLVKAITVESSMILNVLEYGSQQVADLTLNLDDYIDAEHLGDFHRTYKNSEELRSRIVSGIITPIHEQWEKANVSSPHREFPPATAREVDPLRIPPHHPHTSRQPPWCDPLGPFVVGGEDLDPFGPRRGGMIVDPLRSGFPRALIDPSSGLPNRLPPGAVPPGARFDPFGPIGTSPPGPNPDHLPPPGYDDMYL
UniProt Q05397, whole entry, looked up: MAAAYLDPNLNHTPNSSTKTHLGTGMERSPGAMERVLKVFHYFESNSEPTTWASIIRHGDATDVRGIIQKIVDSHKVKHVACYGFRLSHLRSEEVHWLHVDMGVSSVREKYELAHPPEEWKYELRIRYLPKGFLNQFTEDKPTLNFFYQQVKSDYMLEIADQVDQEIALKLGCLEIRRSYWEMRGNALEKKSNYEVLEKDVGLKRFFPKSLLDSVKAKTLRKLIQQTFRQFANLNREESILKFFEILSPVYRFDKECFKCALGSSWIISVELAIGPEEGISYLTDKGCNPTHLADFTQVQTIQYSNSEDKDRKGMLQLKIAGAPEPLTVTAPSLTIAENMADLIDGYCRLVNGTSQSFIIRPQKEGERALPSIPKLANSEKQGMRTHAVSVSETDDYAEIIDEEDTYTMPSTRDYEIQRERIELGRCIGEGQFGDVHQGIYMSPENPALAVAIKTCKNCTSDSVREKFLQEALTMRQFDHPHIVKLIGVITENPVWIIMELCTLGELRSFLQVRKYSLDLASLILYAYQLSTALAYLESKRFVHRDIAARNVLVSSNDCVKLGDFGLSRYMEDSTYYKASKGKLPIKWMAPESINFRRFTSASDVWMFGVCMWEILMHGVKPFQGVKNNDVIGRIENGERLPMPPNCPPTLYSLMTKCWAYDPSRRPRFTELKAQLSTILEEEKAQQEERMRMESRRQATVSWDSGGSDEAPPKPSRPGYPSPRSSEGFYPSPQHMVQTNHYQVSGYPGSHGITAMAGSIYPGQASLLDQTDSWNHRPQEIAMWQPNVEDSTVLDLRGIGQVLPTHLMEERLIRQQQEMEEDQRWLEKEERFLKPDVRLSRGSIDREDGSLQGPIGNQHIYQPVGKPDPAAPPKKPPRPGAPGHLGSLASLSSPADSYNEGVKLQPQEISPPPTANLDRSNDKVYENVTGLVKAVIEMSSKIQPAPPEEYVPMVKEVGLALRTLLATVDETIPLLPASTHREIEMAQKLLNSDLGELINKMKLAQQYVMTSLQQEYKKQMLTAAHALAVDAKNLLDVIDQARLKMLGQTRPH
UniProt Q12974: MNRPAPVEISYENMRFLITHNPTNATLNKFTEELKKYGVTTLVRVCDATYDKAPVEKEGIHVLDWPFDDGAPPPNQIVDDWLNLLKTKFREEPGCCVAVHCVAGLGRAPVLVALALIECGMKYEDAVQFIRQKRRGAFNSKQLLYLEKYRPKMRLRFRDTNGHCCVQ
UniProt P17706: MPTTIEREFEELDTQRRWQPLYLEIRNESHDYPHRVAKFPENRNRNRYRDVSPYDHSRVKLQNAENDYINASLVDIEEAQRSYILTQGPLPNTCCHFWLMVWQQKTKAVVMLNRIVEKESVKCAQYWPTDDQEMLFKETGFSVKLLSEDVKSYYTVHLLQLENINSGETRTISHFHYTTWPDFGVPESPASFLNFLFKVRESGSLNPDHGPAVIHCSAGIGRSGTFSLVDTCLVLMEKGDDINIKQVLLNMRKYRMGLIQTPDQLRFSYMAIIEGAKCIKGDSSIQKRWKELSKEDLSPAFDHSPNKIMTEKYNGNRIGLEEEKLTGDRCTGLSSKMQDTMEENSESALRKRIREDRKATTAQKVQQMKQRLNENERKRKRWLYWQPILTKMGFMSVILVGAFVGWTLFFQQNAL
UniProt Q9Y520: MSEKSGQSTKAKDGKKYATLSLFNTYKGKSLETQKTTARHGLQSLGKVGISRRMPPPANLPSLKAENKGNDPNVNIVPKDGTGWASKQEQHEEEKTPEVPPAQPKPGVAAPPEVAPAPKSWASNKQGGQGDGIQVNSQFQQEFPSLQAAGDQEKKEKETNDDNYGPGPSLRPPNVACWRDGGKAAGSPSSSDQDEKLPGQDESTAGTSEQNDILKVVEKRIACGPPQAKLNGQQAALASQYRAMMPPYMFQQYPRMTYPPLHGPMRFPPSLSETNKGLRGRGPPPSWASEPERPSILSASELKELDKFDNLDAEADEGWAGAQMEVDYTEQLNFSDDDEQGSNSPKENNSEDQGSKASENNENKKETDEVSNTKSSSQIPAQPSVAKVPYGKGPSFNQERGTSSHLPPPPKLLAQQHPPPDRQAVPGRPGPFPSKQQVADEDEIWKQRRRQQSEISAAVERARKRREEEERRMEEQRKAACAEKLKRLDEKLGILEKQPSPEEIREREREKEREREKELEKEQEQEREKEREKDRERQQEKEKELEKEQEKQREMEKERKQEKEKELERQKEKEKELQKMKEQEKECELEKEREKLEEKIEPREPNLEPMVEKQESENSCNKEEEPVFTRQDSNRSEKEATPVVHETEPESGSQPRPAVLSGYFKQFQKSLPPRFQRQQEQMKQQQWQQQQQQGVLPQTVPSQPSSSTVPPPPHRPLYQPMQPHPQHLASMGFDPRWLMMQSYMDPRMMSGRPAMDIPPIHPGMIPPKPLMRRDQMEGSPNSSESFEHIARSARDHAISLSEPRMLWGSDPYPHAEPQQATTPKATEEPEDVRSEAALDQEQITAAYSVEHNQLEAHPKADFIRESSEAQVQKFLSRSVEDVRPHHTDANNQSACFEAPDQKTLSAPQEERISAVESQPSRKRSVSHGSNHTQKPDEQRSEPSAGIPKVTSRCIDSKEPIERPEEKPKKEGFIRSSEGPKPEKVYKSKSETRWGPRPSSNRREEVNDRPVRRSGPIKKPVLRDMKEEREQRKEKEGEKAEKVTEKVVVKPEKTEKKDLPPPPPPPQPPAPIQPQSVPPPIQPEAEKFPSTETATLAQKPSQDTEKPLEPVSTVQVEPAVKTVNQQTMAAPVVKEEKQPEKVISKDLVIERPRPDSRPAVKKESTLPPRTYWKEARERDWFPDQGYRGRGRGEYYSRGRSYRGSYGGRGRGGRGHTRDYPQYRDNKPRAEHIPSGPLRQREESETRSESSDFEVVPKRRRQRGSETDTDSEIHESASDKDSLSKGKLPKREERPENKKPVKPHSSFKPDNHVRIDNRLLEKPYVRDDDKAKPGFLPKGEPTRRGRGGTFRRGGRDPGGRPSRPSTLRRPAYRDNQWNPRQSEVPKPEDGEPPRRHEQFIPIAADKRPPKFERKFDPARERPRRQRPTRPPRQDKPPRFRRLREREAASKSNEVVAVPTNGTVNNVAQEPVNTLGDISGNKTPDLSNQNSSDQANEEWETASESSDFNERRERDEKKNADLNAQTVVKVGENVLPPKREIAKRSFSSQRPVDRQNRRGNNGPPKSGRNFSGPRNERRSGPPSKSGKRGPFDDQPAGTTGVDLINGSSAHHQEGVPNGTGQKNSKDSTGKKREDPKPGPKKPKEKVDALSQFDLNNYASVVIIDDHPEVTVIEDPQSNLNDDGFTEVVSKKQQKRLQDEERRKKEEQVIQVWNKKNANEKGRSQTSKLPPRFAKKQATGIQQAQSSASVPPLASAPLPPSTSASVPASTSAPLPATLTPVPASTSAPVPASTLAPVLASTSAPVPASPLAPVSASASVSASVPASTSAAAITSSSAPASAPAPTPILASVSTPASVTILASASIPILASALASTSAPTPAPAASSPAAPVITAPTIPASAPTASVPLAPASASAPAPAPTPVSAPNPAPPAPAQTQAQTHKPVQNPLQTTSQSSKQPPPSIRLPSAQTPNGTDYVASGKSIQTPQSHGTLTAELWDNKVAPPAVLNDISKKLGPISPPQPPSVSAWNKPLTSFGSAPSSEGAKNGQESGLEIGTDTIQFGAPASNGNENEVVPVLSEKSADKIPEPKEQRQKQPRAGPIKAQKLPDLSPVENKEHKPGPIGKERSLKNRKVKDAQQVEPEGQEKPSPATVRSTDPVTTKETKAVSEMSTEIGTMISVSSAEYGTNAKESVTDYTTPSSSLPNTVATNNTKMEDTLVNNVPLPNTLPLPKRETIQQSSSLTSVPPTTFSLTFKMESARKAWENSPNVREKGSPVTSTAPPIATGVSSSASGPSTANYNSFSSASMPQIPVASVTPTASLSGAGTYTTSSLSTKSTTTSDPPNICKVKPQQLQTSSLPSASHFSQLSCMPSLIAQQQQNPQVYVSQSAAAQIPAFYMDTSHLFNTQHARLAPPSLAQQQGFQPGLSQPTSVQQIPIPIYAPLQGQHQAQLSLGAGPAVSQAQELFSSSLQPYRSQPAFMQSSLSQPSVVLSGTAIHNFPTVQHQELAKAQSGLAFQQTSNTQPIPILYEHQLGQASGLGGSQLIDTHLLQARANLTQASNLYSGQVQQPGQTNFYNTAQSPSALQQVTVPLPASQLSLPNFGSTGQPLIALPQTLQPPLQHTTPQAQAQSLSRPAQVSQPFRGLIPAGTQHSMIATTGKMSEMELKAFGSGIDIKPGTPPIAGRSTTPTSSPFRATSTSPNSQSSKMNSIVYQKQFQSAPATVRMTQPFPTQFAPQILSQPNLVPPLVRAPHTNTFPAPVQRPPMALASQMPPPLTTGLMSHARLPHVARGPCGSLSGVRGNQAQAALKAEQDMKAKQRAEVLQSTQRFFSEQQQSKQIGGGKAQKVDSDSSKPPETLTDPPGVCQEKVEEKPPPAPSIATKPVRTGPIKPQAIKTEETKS
UniProt P29350: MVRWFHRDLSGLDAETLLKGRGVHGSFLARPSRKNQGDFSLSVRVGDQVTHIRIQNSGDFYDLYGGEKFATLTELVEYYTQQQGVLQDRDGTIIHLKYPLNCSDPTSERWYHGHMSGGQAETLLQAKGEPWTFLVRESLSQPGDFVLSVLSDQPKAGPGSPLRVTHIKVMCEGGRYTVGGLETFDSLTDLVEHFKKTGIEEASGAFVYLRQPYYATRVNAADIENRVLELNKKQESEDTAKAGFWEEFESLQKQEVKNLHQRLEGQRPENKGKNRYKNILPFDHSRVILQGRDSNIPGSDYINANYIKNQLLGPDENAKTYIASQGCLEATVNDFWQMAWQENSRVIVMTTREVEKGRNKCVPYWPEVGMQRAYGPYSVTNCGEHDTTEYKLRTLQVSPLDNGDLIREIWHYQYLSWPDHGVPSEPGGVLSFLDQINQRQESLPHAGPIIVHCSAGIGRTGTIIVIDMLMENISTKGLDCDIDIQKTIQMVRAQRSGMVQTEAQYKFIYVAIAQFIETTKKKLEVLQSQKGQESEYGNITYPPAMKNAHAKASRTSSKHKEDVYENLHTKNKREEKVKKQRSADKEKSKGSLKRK
UniProt Q96BW5: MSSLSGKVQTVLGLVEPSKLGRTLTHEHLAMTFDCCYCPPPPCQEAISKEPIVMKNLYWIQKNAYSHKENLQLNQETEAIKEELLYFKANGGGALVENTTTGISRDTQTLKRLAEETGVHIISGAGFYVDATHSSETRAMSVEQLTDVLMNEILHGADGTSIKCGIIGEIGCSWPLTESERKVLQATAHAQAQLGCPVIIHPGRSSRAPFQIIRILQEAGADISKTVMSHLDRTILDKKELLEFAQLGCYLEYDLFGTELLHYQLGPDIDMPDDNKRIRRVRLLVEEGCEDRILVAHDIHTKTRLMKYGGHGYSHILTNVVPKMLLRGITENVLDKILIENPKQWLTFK

What was measured:
Assay in all cases: log2 fold change, soluble protein after heating vs DMSO (PISA); higher = thermal stabilisation; K562 lysate, 10 uM; active = over 0.2 and 3.5 SD of the protein, either way, in both replicates (recomputed)
erlotinib = compound: C#Cc1cccc(Nc2ncnc3cc(OCCOC)c(OCCOC)cc23)c1 [erlotinib]
Procedure, shortened: (§1)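 Quantification was by TMTpro 16plex LC-MS/MS with equalised channel sums, applied to the supernatant after 21,000xg for 90 min. Samples were crude K562 extract at 1 mg/mL protein in PBS pH 7.4 with 1 mM MgCl2, treated with 10 μM compound for 30 min, heated for 3 min across 48°C-58°C, pooled and brought to 0.5% NP-40 at 4°C. Values are log-two fold changes in thermal stability relative to solvent controls, from duplicates.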

[1] = compound: C/C(=N\NC(=O)C1=CC(=CC=C1)S(=O)(=O)N2CCOCC2)/C3=C(C=CC(=C3)Cl)O
Procedure, shortened: as §1

[2] = compound: C1=CC(=CC=C1C2=NC3=C(N2)C=C(C=C3)C(=O)N)OC4=CC=C(C=C4)Cl
Procedure, shortened: as §1

[3] = compound: C1=CC2=C(C=CC(=C2)/C=C\3/C(=O)NC(=NCC4=CC=CS4)S3)N=C1
Procedure, shortened: as §1

[4] = compound: C1=CC2=NC=CN=C2C=C1/C=C/3\C(=O)NC(=O)S3
Procedure, shortened: as §1

[5] = compound: C1=CC=C(C=C1)C2=NC(=C(N2)C3=CC=NC=C3)C4=CC(=C(C=C4)Cl)O
Procedure, shortened: as §1

[6] = compound: C1=CC=C2C(=C1)C3=NNC4=CC=CC(=C43)C2=O
Procedure, shortened: as §1

[7] = compound: C1CCN(C1)C(=O)NC2=CC=CC(=C2)NC3=NC=C(C(=N3)NCCC4=CN=CN4)Br
Procedure, shortened: as §1

[8] = compound: C1CN(CCC1(CC2=CC=C(C=C2)Cl)N)C3=NC=NC4=C3C=CN4
Procedure, shortened: as §1

IRAK-1-4 Inhibitor I = compound: C1COCCN1CCN2C3=CC=CC=C3N=C2NC(=O)C4=CC(=CC=C4)[N+](=O)[O-] [IRAK-1-4 Inhibitor I]
Procedure, shortened: as §1

ibrutinib = compound: C=CC(=O)N1CCC[C@@H](n2nc(-c3ccc(Oc4ccccc4)cc3)c3c(N)ncnc32)C1 [ibrutinib]
Procedure, shortened: as §1

[9] = compound: CC(=O)c1cnc2ccc(-c3cc(Cl)c(O)c(Cl)c3)nc2c1N[C@H]1CC[C@H](CN(C)C)CC1
Procedure, shortened: as §1

ralimetinib = compound: CC(C)(C)Cn1c(N)nc2ccc(-c3[nH]c(C(C)(C)C)nc3-c3ccc(F)cc3)nc21 [ralimetinib]
Procedure, shortened: as §1

[10] = compound: CC(C)(O)CC(=O)NCCn1ccc2ncnc(Nc3ccc(Oc4cccc(C(F)(F)F)c4)c(Cl)c3)c21
Procedure, shortened: as §1

[11] = compound: CC(C)C1=C2N=C(C=C(N2N=C1)NCC3=CC=CC=C3)NCCCCCCN
Procedure, shortened: as §1

[12] = compound: CC1=C(C(CC(=O)N1)C2=CC=C(C=C2)C(F)(F)F)C(=O)NC3=C(C=C4C(=C3)C=NN4)F
Procedure, shortened: as §1

[13] = compound: CC1=C(C2=C(C=C1)C(=O)C3=CC=CC=C3N2CCCN)C
Procedure, shortened: as §1

[14] = compound: CC1=C(C=C(C=C1)NC(=O)C2=CC(=CC=C2)C(C)(C)C#N)NC3=CC4=C(C=C3)N=CN(C4=O)C
Procedure, shortened: as §1

[15] = compound: CC1=C(C=C(C=C1)NC(=O)C2=CC(=CC=C2)N(C)C)NC(=O)C3=CC=C(C=C3)O
Procedure, shortened: as §1

[16] = compound: CC1=CC=C(C=C1)SC2=C3C=C(SC3=CN=C2)C(=O)N
Procedure, shortened: as §1

Measured: log2 fold change

PRPSAP2 (UniProt O60256)
inactive: erlotinib 0.008 | [1] 0.003 | [2] 0.002 | [3] -0.023 | [4] 0.003 | [5] 0.013 | [6] 0.007 | [7] -0.02 | [8] 0.01 | IRAK-1-4 Inhibitor I 0.02 | ibrutinib 0.021 | [9] 0.032 | ralimetinib 0.007 | [10] -0.014 | [11] 0.002 | [12] -0.009 | [13] -0.006 | [14] 0.004 | [15] -0.033 | [16] -0.004

PSME1 (UniProt Q06323)
inactive: erlotinib 0.01 | [1] 0.02 | [2] 0.018 | [3] -0.013 | [4] 0.018 | [5] -0.005 | [6] -0.02 | [7] 0.034 | [8] 0.038 | IRAK-1-4 Inhibitor I 0.009 | ibrutinib 0.029 | [9] 0.019 | ralimetinib 0.016 | [10] 0.021 | [11] -0.016 | [12] -0.037 | [13] -0.01 | [14] -0.006 | [15] -0.015 | [16] 0.02

PSMB2 (UniProt P49721)
inactive: erlotinib 0.01 | [1] 0.037 | [2] -0.016 | [3] 0.017 | [4] 0 | [5] 0.001 | [6] -0.023 | [7] -0.021 | [8] 0.038 | IRAK-1-4 Inhibitor I 0.024 | ibrutinib 0.04 | [9] -0.003 | ralimetinib -0.011 | [10] -0.042 | [11] -0.007 | [12] -0.032 | [13] -0.008 | [14] 0.024 | [15] -0.004 | [16] -0.002

PTPA isoform 2 (UniProt Q15257)
inactive: erlotinib 0.005 | [1] 0.018 | [2] -0.011 | [3] -0.018 | [4] 0.003 | [5] -0.017 | [6] -0.034 | [7] 0.002 | [8] 0.018 | IRAK-1-4 Inhibitor I 0.011 | ibrutinib 0.027 | [9] -0.004 | ralimetinib 0.009 | [10] -0.042 | [11] 0.152 | [12] -0.004 | [13] -0.007 | [14] -0.016 | [15] -0.025 | [16] -0.003

PTPMT1 (UniProt Q8WUK0)
inactive: erlotinib 0.074 | [1] 0.261 | [2] -0.358 | [3] -0.076 | [4] 0.191 | [5] 0.087 | [6] 0.049 | [7] -0.103 | [8] 0.004 | IRAK-1-4 Inhibitor I -0.071 | ibrutinib -0.033 | [9] 0.048 | ralimetinib -0.105 | [10] 0.1 | [11] 0.029 | [12] -0.067 | [13] -0.025 | [14] 0.041 | [15] 0.049 | [16] 0.055

PSMF1 (UniProt Q92530)
inactive: erlotinib -0.035 | [1] -0.052 | [2] 0.031 | [3] 0.007 | [4] -0.03 | [5] -0.049 | [6] 0.011 | [7] 0.027 | [8] 0.023 | IRAK-1-4 Inhibitor I 0.042 | ibrutinib 0.002 | [9] -0.013 | ralimetinib -0.037 | [10] -0.074 | [11] 0.002 | [12] 0.03 | [13] 0.011 | [14] 0.107 | [15] -0.034 | [16] -0.029

PTPN23 (UniProt Q9H3S7)
inactive: erlotinib 0.017 | [1] -0.029 | [2] 0.016 | [3] -0.01 | [4] -0.023 | [5] 0.008 | [6] -0.028 | [7] -0.013 | [8] -0.003 | IRAK-1-4 Inhibitor I -0.004 | ibrutinib 0.024 | [9] 0.007 | ralimetinib 0.029 | [10] 0.007 | [11] -0.019 | [12] -0.014 | [13] 0.01 | [14] -0.015 | [15] 0.009 | [16] 0.012

PTK2 (UniProt Q05397)
inactive: erlotinib -0.018 | [1] -0.009 | [2] 0.045 | [3] -0.031 | [4] -0.045 | [5] -0.02 | [6] 0.271 | [7] 0.32 | [8] -0.045 | IRAK-1-4 Inhibitor I 0.22 | ibrutinib 0.085 | [9] 0.188 | ralimetinib -0.002 | [10] 0.044 | [11] -0.015 | [12] -0.024 | [13] 0.011 | [14] -0.054 | [15] -0.007 | [16] -0.128

PTP4A2 (UniProt Q12974)
inactive: erlotinib 0.05 | [1] -0.307 | [2] 0.011 | [3] 0.107 | [4] 0.035 | [5] 0.002 | [6] -0.028 | [7] 0.007 | [8] 0.125 | IRAK-1-4 Inhibitor I -0.014 | ibrutinib 0.01 | [9] 0.033 | ralimetinib 0.061 | [10] 0.019 | [11] -0.012 | [12] 0.018 | [13] 0.004 | [14] -0.002 | [15] -0.036 | [16] -0.015

PRUNE1 (UniProt Q86TP1)
inactive: erlotinib 0.025 | [1] -0.041 | [2] 0.007 | [3] -0.039 | [4] -0.021 | [5] -0.008 | [6] 0.002 | [7] -0.038 | [8] -0.022 | IRAK-1-4 Inhibitor I 0.009 | ibrutinib 0.073 | [9] 0.025 | ralimetinib 0.007 | [10] -0.037 | [11] -0.019 | [12] -0.019 | [13] -0.015 | [14] 0.018 | [15] 0.027 | [16] 0.003

PTPN2 (UniProt P17706)
inactive: erlotinib 0.028 | [1] 0.119 | [2] -0.005 | [3] 0.006 | [4] 0.019 | [5] -0.045 | [6] -0.033 | [7] 0 | [8] 0.046 | IRAK-1-4 Inhibitor I -0.017 | ibrutinib 0.016 | [9] -0.014 | ralimetinib 0.014 | [10] -0.001 | [11] -0.029 | [12] -0.035 | [13] 0.045 | [14] -0.005 | [15] 0.017 | [16] 0.007

PRRC2C isoform 7 (UniProt Q9Y520)
inactive: erlotinib -0.021 | [1] -0.034 | [2] 0.043 | [3] 0.005 | [4] -0.02 | [5] -0.034 | [6] -0.011 | [7] 0.005 | [8] -0.002 | IRAK-1-4 Inhibitor I 0.028 | ibrutinib 0.023 | [9] -0.016 | ralimetinib -0.006 | [10] -0.018 | [11] 0.002 | [12] 0.025 | [13] -0.032 | [14] -0.059 | [15] 0.011 | [16] -0.021

PTPN6 isoform 4 (UniProt P29350)
inactive: erlotinib 0.054 | [1] 0.097 | [2] -0.03 | [3] -0.05 | [4] 0.047 | [5] 0.04 | [6] 0.033 | [7] -0.078 | [8] -0.224 | IRAK-1-4 Inhibitor I -0.073 | ibrutinib 0.051 | [9] -0.077 | ralimetinib 0.045 | [10] -0.026 | [11] 0.019 | [12] 0 | [13] -0.081 | [14] -0.031 | [15] 0.011 | [16] 0.054

PTER (UniProt Q96BW5)
inactive: erlotinib -0.031 | [1] -0.026 | [2] 0.038 | [3] -0.01 | [4] -0.009 | [5] 0.013 | [6] 0.02 | [7] -0.021 | [8] 0.041 | IRAK-1-4 Inhibitor I 0.021 | ibrutinib 0.014 | [9] 0.034 | ralimetinib -0.016 | [10] -0.052 | [11] -0.003 | [12] -0.026 | [13] -0.006 | [14] -0.006 | [15] -0.011 | [16] -0.016

PUF60 (UniProt Q9UHX1)
inactive: erlotinib 0.001 | [1] 0.003 | [2] -0.01 | [3] 0.011 | [4] -0.018 | [5] -0.018 | [6] 0.01 | [7] 0.003 | [8] 0.003 | IRAK-1-4 Inhibitor I -0.023 | ibrutinib 0.011 | [9] -0.004 | ralimetinib -0.034 | [10] 0.013 | [11] 0.018 | [12] -0.02 | [13] 0.009 | [14] -0.003 | [15] -0.001 | [16] 0.004

PSMD11 (UniProt O00231)
inactive: erlotinib -0.01 | [1] -0.08 | [2] -0.015 | [3] 0.009 | [4] -0.005 | [5] 0.012 | [6] 0.017 | [7] 0 | [8] -0.007 | IRAK-1-4 Inhibitor I -0.001 | ibrutinib 0.003 | [9] -0.001 | ralimetinib 0.008 | [10] -0.003 | [11] -0.005 | [12] -0.027 | [13] 0.026 | [14] -0.011 | [15] -0.004 | [16] 0.025
